In general, AC50 refers to the concentration at which the activity in the assay is half-maximal.

This is an account of results in PubChem BioAssay AID445 (National Center for Advancing Translational Sciences (NCATS), 2006).

This is one part of the list. Shown are side measurements of this screen, not its main read-out; they come without a call. The list favours compounds with an active or inconclusive main result. Potencies come from curve fits of mixed quality, noted in brackets.

The test in a line: IkB Signaling. The settings on record: ABC-DLBCL IkBa-CBG/CBR dual luciferase ratio (green luciferase fused to IkBa over red control in OCI-Ly3 lymphoma cells), 4 h; measured here: control luc red channel unless noted. In outline:
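Luminescence ratio of IκBα-fused green versus native red beetle luciferase in OCI-Ly3 cells, 4 h post-doxycycline with compound; red signal alone, scaled from basal (0%) to zero light (-100%), flagged nonspecific or cytotoxic effects.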
Take `Cc1nn2c(=O)cc(COC(=O)Cc3ccccc3)nc2s1`: the AC50 was 100 nM [rising, full curve] [measured here: IkB-luc green channel].
In the case of `CCc1ccc(-c2cn3c(n2)sc2cc(C(=O)NC4CCCCC4)ccc23)cc1` it was 3.16 µM [falling, full curve].
The result for `CC(=O)Nc1ccc(NS(=O)(=O)c2c(C(=O)N3CCC(C)CC3)c(C)n(C)c2C)cc1` reads 0.0316 µM [rising, full curve, poor fit]; that for `COc1cccc(C(=O)Nc2cccc(OCc3cc(=O)n4c5c(sc4n3)CCCC5)c2)c1`, 1.26 µM [falling, full curve].
As to `COc1ccc2oc(=O)c(C(=O)NCCc3c(C)[nH]c4ccc(F)cc34)cc2c1`, the AC50 was 20 µM [falling, partial curve].
In the case of `COCCNc1oc(-c2ccccc2)nc1S(=O)(=O)c1ccc(Br)cc1` it was 39.8 µM [falling, single point]; in that of `COc1ccc2sc(N(Cc3cccnc3)C(=O)c3ccc4c(c3)OCCO4)nc2c1`, 31.6 µM [falling, single point].
With `COc1ccc(O)c(/C=c2/sc3nc4cc(C)c(C)cc4n3c2=O)c1`, the AC50 is 12.6 µM [falling, partial curve].
The result for `O=C1c2sc3nc4ccccc4n3c2C(=O)N1c1ccccc1Cl` reads 25.1 µM [falling, partial curve].
In the case of `CCc1ccc(S(=O)(=O)N(C(=O)c2ccncc2)c2ccc3oc(C)c(C(=O)OC)c3c2)cc1` it was 10 µM [falling, partial curve]; in that of `COc1ccc(CC(=O)N2CCc3cc(OC)c(OC)cc3C2COc2cc(C)cc(C)c2)cc1OC` (configuration not stated), 7.94 µM [falling, partial curve].
In the case of `O=C(Nc1ccc(-n2nncc2-c2ccco2)cc1)c1cccc(F)c1` it was 15.8 µM [falling, partial curve]; in that of `CCOC(=O)c1ccc(N2C(=O)c3n[nH]c(-c4ccco4)c3C2c2ccc(C)cc2)cc1` (configuration not stated), 25.1 µM [falling, partial curve]; in that of `Cc1cc(C)cc(NC(=O)CCS(=O)(=O)c2cccc3nsnc23)c1`, 0.0501 µM [falling, full curve, poor fit].
Consider `COc1cccc(NC(=O)C(=O)NCC(c2ccc3c(c2)OCO3)N2CCN(C)CC2)c1` (configuration not stated), for which the AC50 was 0.2 µM [falling, partial curve].
The result for `CCn1cc(C(=O)NCc2ccco2)c(=O)c2cc(S(=O)(=O)N3CCc4ccccc4C3)ccc21` reads 7.94 µM [falling, full curve, poor fit]; that for `CCc1ccc(N(CC)C(=O)c2cc3c(=O)oc4ccc(C)cc4c3s2)cc1`, 39.8 µM [falling, single point].
